Data on 60 compounds can be found in PubChem BioAssay AID2685 (National Center for Advancing Translational Sciences (NCATS), 2010).

A word on the AC50: it is the concentration at which the activity in the assay is half-maximal.

This is one part of the list. Shown are side measurements of this screen, not its main read-out; they come without a call. The list favours compounds with an active or inconclusive main result. Words in brackets tell the shape of the fitted curve; partial curves, single points and poor fits give uncertain potencies.

A short description of this assay: qHTS Assay for Lipid Storage Modulators in Drosophila S3 Cells.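 On cell number change: cells counted by Cell Tracker Red CMTPX staining in the red channel.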 Conditions: BODIPY lipid droplet fluorescence, 18-24 h; for cell number change: measured here: cell count max response, cells fed with added oleic acid. The essentials: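 Drosophila S3 cells loaded with oleic acid (400 uM, as added) and compounds at several concentrations; lipid droplets imaged by 488-nm laser-scanning cytometry, 500–530 nm intensity and object ratio to cell channel. Percent activity normalized to 20 uM Triacsin C.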

Setting [1] is: measured here: cell number channel AC50, cells fed with added oleic acid.
Setting [2] is: measured here: lipid fluorescence (Fed channel) AC50, cells fed with added oleic acid.

Regarding `Clc1ccc2nc(CSCc3ccccc3)cn2c1`, the cell number change is 47.8%. The AC50 under setting [1] is 0.651 µM [rising, full curve]. The AC50 under setting [2] is 29.1 µM [rising, single point].

Consider `O=C(NC(=S)Nc1ccc(N2CCCC2)cc1)c1ccc(F)cc1`, for which the cell number change was -6.47%. Still for that read-out and setting: in the case of `O=C(Cn1nnc(-c2cccs2)n1)Nc1ccccc1C(F)(F)F` it was 42.5%.

As to `Cc1nnc(N/N=C/c2ccc(-c3ccccc3F)o2)n1N`, the cell number change is -12.5%. Besides, the AC50 under setting [2] was 14.6 µM [falling, partial curve]. `Cc1ccc(F)cc1NC(=O)N1CCN(c2ccnc3cc(Cl)ccc23)CC1`: the cell number change stood at 25%. Also, the AC50 under setting [2] is 0.366 µM [rising, full curve]. `COc1ccccc1N(C)S(=O)(=O)c1ccc(C(=O)Nc2nc(C)cs2)cc1`: the cell number change is -62.1%. Besides, the concentration at half-maximal activity (AC50) under setting [1] is 29.1 µM [falling, single point]. Besides, the AC50 under setting [2] is 29.1 µM [falling, single point]. For `COc1ccccc1OCC(=O)N1CCN(c2ccccc2OC)CC1`, the cell number change was 46%. Besides, the AC50 under setting [1] was 18.4 µM [rising, single point]. Moreover, the AC50 under setting [2] was 6.51 µM [rising, single point]. In the case of `Cc1csc2ncnc(N3CCN(S(=O)(=O)c4cccc(C(F)(F)F)c4)CC3)c12`, the cell number change was -35.6%. Moreover, the AC50 under setting [1] is 18.4 µM [falling, single point].

On to `CC(=O)c1cccc(NC(=O)N2CCC(NC(=O)C3CCCCC3)CC2)c1`, for which the cell number change is 12.2%. Besides, the AC50 under setting [2] was 29.1 µM [falling, single point]. For `O=C(CCSc1ccc(F)cc1)NNC(=O)c1ccc([N+](=O)[O-])cc1`, the cell number change came to 7.63%. Further, under setting [2], the AC50 was 18.4 µM [rising, partial curve]. Turning to `O=S(=O)(CCc1nc2ccccc2[nH]1)c1ccc(Br)cc1`, the cell number change worked out at 15.1%. Also, the AC50 under setting [2] is 20.6 µM [rising, single point].

`COc1cc2c(cc1OC)C1O[C@](CCCCN3C(=O)c4ccccc4C3=O)(C2)OC2=C1C(=O)CC(C)(C)C2`: the cell number change amounted to 0.764%. As to `COc1cc(Cl)ccc1OCc1cc(C(=O)NCC(C)(C)N2CCOCC2)no1`, the cell number change stood at 1.59%. In addition, under setting [2], the AC50 was 32.6 µM [falling, single point].

Consider `N#CCCn1cc(/C=N/N=C2\NC(=O)C(CC(=O)O)S2)c(-c2ccc(F)cc2)n1` (stereo not drawn), for which the cell number change is -4.42%. Also, the AC50 under setting [2] was 1.03 µM [falling, full curve]. As for `O=C(Nc1ccc(F)cc1)NC1CCN(Cc2ccccc2)CC1`, the AC50 is 0.00461 µM [falling, full curve, poor fit] under setting [1] and 1.16 µM [falling, single point] under setting [2]. `COCCCNC(=O)CSc1nc2cc(C(=O)NCCOC)ccc2c(=O)n1Cc1ccc2c(c1)OCO2`: the cell number change is -19.8%. Consider `N#CNC(=Nc1cccc(F)c1)SCc1ccccc1F`, for which the cell number change was 1.83%. Besides, the AC50 under setting [2] is 0.231 µM [falling, full curve, poor fit].

`O=C(COC(=O)/C=C/c1ccc(C(F)(F)F)cc1)Nc1ccc2[nH]c(=O)[nH]c2c1`: the cell number change was -18.4%. In the case of `COc1cccc(N(CC(=O)NC2CCCCC2)C(=O)Cn2nnc(-c3ccc(C)o3)n2)c1`, the cell number change was determined as 36.3%. Moreover, the AC50 under setting [1] is 10.3 µM [rising, partial curve, poor fit]. For the same compound, under setting [2], the AC50 is 29.1 µM [rising, single point]. As to `Cc1ccc(Oc2cc(NN3CCCCC3)c([N+](=O)[O-])cc2[N+](=O)[O-])c(Cl)c1`, the cell number change came out at 20.4%. For the same compound, the AC50 under setting [2] was 6.51 µM [rising, partial curve, poor fit]. For `CN(CC1COc2ccccc2O1)C(=O)c1cccc(S(=O)(=O)N2CCCC2)c1` (stereo not drawn), the cell number change was -9.52%. The AC50 under setting [2] was 29.1 µM [falling, single point]. Consider `COc1cccc(OCC(O)CNC(=O)c2oc3c(C)c(C)ccc3c2C)c1` (stereo not drawn), for which the cell number change was -13.5%. Further, the AC50 under setting [2] was 16.4 µM [rising, partial curve]. For `CC1(OC(=O)C2CCCC2)C(=O)C=C2C=C(c3ccsc3)N(Cc3ccc4c(c3)OCO4)C=C2C1=O` (stereo not drawn), the cell number change was -34.7%. The concentration at half-maximal activity (AC50) under setting [1] is 8.2 µM [falling, partial curve]. For the same compound, the AC50 under setting [2] is 10.3 µM [falling, partial curve]. In the case of `CCN(Cc1ccccc1)C(c1cc2ccc(C)cc2[nH]c1=O)c1nnnn1CCOC` (stereo not drawn), the cell number change worked out at 13.5%. The AC50 under setting [2] is 29.1 µM [falling, single point].

`CCOC(=O)c1sc2c(c1C)C(c1cccs1)C1=C(CCCC1=O)N2` (stereo not drawn): the cell number change is -27.9%. Also, the AC50 under setting [2] is 32.6 µM [falling, single point]. In the case of `CC1(C)CC(=O)C=C(c2cccc3c2sc2ccccc23)C1`, the cell number change is -8.9%. In addition, the AC50 under setting [2] was 0.0517 µM [rising, full curve, poor fit].

As for `Cc1ccc2[nH]cc(C(=O)CN3CCOCC3)c2c1`, the cell number change stood at 23.3%. Further, the AC50 under setting [1] is 0.116 µM [rising, full curve, poor fit]. Besides, the AC50 under setting [2] is 2.59 µM [rising, partial curve]. Take `COc1ccc(N(C)S(=O)(=O)c2cccc(C(=O)OC(C(=O)Nc3cc(C)cc(C)c3)c3ccccc3)c2)cc1` (stereo not drawn): under setting [2], the AC50 is 0.58 µM [falling, single point]. On to `C=CCn1c(SCC(=O)c2c(N)n(C)c(=O)n(C)c2=O)nc2sc(C)c(C)c2c1=O`, for which the cell number change was 124%. Also, the AC50 under setting [1] is 4.11 µM [falling, single point]. With `COc1ccc(NC(=O)Cn2c(-c3ccccc3)cn(-c3ccc(C)cc3)c2=O)cc1`, the cell number change was found to be 1.85%. Also, the AC50 under setting [1] was 6.51 µM [rising, single point]. The AC50 under setting [2] was 16.4 µM [rising, partial curve]. For `Cc1nc(NC(=O)CSc2nc(N)cc(N)n2)sc1C`, the cell number change stood at 10.9%. In addition, the AC50 under setting [2] is 29.1 µM [rising, partial curve].

With `COCCN(CCOC)C(=O)Nc1ccc(Cl)cc1`, under setting [2], the AC50 is 0.651 µM [rising, partial curve, poor fit]. For the compound `CC(NC(=O)C1CCC1)c1ccc(Cl)cc1` (stereo not drawn), the cell number change was -62.4%. In addition, the AC50 under setting [1] was 0.00731 µM [falling, full curve, poor fit]. In addition, the AC50 under setting [2] is 0.13 µM [falling, full curve, poor fit]. On to `Cc1ccc(NC(=O)CNc2cccc(S(=O)(=O)N3CCCCC3)c2)cc1F`, for which, under setting [2], the AC50 was 20.6 µM [falling, single point].

In the case of `COC(=O)c1c(-c2ccccc2)c(-c2ccccc2)nn(C)c1=O`, the cell number change was -23%. For the same compound, the AC50 under setting [2] was 16.4 µM [rising, partial curve]. In the case of `CN1CCC(=NNc2ncnc3sc4c(c23)CCCC4)CC1`, the cell number change is 19.5%. The AC50 under setting [2] was 6.51 µM [falling, single point]. As for `CC(Cc1ccco1)NC(=O)c1ccc(C(F)(F)F)cc1` (stereo not drawn), the cell number change is -7.94%. Also, the AC50 under setting [2] is 29.1 µM [rising, single point]. Take `Cc1[nH]n(-c2ccccc2)c(=O)c1/C=N/Nc1nncc(-c2ccccc2)n1`: the cell number change was found to be 4.51%. The AC50 under setting [1] was 0.259 µM [rising, full curve, poor fit]. The AC50 under setting [2] is 0.411 µM [rising, full curve]. For `CC(C)[C@H](NC(=O)Nc1ccc(Oc2ccccc2)cc1)C(=O)O`, the cell number change is -6.62%. In the case of `Nn1cnnc1SCC(=O)Nc1ccc2c(c1)OCCO2`, the cell number change is -177%. Besides, under setting [1], the AC50 was 29.1 µM [falling, partial curve]. For the compound `CCOC(=O)c1cc2c(ccn2C)n1Cc1ccc(C#N)cc1`, the cell number change turned out to be 20.9%. Under setting [2], the AC50 was 1.64 µM [rising, partial curve, poor fit]. Consider `CCC(C)(C)NC(=O)C(c1ccccn1)N(C(=O)c1csnn1)C1CCCCC1` (stereo not drawn), for which the cell number change was -12.5%. Moreover, the AC50 under setting [2] is 29.1 µM [falling, single point]. In the case of `CC1CC(C)CN(C(=O)c2cc(-c3ccccn3)nc3ccccc23)C1` (stereo not drawn), the cell number change is -39.4%. Further, the concentration at half-maximal activity (AC50) under setting [1] is 25.9 µM [falling, single point]. Also, the AC50 under setting [2] is 20.6 µM [falling, single point]. Take `CC(C)CC(COCc1ccc([N+](=O)[O-])cc1)N1CCN(C(=O)c2ccc(C(F)(F)F)cc2)CCC1=O` (stereo not drawn): the cell number change is -25.8%. The AC50 under setting [2] is 0.184 µM [falling, full curve, poor fit]. Consider `O=C(Nc1nnc(-c2ccco2)s1)C1CCCCC1`, for which the AC50 under setting [2] was 32.6 µM [falling, partial curve, poor fit]. `N/C(=N\OC(=O)C1CCCCC1)c1ccc(Cl)cc1`: the cell number change came out at 15.3%. In addition, the AC50 under setting [2] was 29.1 µM [rising, single point].

Turning to `Cc1cccc(CSCc2ccc(C(=O)NC(C)C)o2)c1`, the AC50 under setting [2] was 0.092 µM [rising, full curve, poor fit].

`CN(C)S(=O)(=O)c1cccc(C(=O)NCc2cccs2)c1`: the cell number change was determined as 42.4%. The AC50 under setting [2] is 29.1 µM [rising, single point]. On to `COc1cc(OC)c(OC)cc1CNC(=O)CCN1C(=O)c2cccc([N+](=O)[O-])c2C1=O`, for which the cell number change came out at 8.4%. In the case of `Cc1cccc(Cn2cnc3c(sc4nc(C)cc(C)c43)c2=O)c1`, the cell number change was -5.56%. The same measure, in the same setting: in the case of `C/C(=N\Nc1ccccc1C(=O)O)c1ccncc1` it was 21.8%. Consider `CCOC(=O)Cc1c(C)nc2c(-c3cccc(Br)c3)c[nH]n2c1=O`, for which the cell number change is -5.75%. In addition, under setting [2], the AC50 was 29.1 µM [falling, single point]. For `COCCCN1C(=O)C(O)=C(C(=O)c2ccco2)C1c1ccccc1` (stereo not drawn), the AC50 under setting [2] is 0.13 µM [falling, full curve, poor fit].

`CCO[C@H]1OC(C(=O)Nc2ccccc2)=C[C@@H](c2coc3ccccc3c2=O)[C@@H]1CCCO`: the cell number change was 2.08%. In addition, the AC50 under setting [2] is 0.0058 µM [falling, full curve, poor fit]. Regarding `CCOCCCNC(=O)CSc1nc2nc(C)c(Cc3ccccc3)c(C)n2n1`, the cell number change was determined as 13.3%. For the compound `O=C(Cc1ccc(F)cc1)N1CCN=C1SCc1cccc([N+](=O)[O-])c1`, the cell number change is 28.2%. On to `Cc1cc(C(=O)NC(C)CCC(C)C)c2ccccc2n1` (stereo not drawn), for which the cell number change stood at 7.01%. Turning to `N=c1ccn(Cc2ccc(Cl)cc2)cc1`, the cell number change was -36.8%. The AC50 under setting [1] was 18.4 µM [falling, partial curve]. The AC50 under setting [2] was 3.26 µM [falling, full curve]. As for `COC(=O)c1ccc(CSc2nc3ccc(S(N)(=O)=O)cc3[nH]2)cc1`, the cell number change was determined as 9.83%. Besides, the AC50 under setting [2] is 0.517 µM [rising, full curve]. For the compound `CC(=O)Nc1ccc(S(=O)(=O)N(C)S(=O)(=O)c2ccc(F)cc2)cc1`, the cell number change is -0.52%. Besides, the AC50 under setting [2] was 0.103 µM [rising, full curve, poor fit].
